Counter-ions that a name gives are not always drawn. The list shows a part of the results. Single values are uncertain here, since repeats match poorly.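 The human kidney-derived cells carry a stably integrated construct of eight TEAD-binding elements driving luciferase, read by luminescence in a drug-repurposing library screen. A compound counts as a hit when its signal is more than five robust Z scores above the plate mean.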
Tested on: HEK293A TEAD-LUC reporter
Test: TEAD-luciferase reporter activity (YAP activation), robust Z score vs plate; higher = stronger YAP/TEAD activation
Conditions: 24 h

Row | SMILES | TEAD-luciferase reporter activity (compound concentration: 200 nM) | TEAD-luciferase reporter activity (compound concentration: 2 uM) | TEAD-luciferase reporter activity (compound concentration: 10 uM)
1 | CCCCCCCCNC(=N)NC(=N)NCc1ccc(Cl)c(Cl)c1 | inactive: -0.768 | inactive: 1.23 | inactive: 1.52
2 | Nc1nc(-c2ccc(NC(=O)CN(Cc3ccccc3)C(=O)c3ccncc3)cc2)cs1 | inactive: -0.823 | inactive: 0.0332 | inactive: 3.25
3 | O=C1NC(=O)C2(c3ccc(Cl)cc3)CC12 (stereo not given) | inactive: 0.592 | inactive: -0.355 | inactive: -0.951
4 | Cc1ccccc1C(=O)N1CCC(C(=O)N2CCC(N3Cc4ccccc4C3=O)CC2)CC1 | inactive: -0.0134 |  | inactive: 3.66
5 | C[C@H](c1ccc(F)cc1)N(Cc1cccc(C(=O)O)c1)C(=O)c1cnc2ccccc2c1 | inactive: -1.34 | inactive: 0.685 | inactive: 0.331
6 | CCCCCCCCCCOc1c(OC)cc(C(N)=O)cc1OC | inactive: -0.155 | inactive: -0.839 | inactive: 1.25
7 | CCOC(=O)C1=C(C)NC(C)=C(C(=O)OCCN2C(=O)c3ccccc3S2(=O)=O)C1C (stereo not given) [Trombodipine] | inactive: 1.22 | inactive: -0.549 | inactive: -0.579
8 | CN(O)C(=O)CCc1ccc2c(c1)C(=O)c1ccccc1CO2 | inactive: -1.56 | inactive: -0.224 | inactive: 0.896
9 | Cn1c(=O)c(C(=O)NCCO)c(O)c2ncc(Cc3ccc(F)cc3)cc21 | inactive: -0.0469 | inactive: -0.802 | inactive: 0.277
10 | CCCCN1CCC(COC(=O)c2cc(Cl)c(N)c3c2OCCO3)CC1 | inactive: -0.637 | inactive: 0.974 | inactive: 0.383
11 | CC[N+](C)(C)c1cccc(O)c1 | inactive: -2.35 | inactive: -1.52 | inactive: -1.13
12 | N[C@@H](Cc1cc(CP(=O)(O)O)cc(-c2ccccc2Cl)c1)C(=O)O | inactive: 0.323 | inactive: -1.4 | inactive: 2.71
13 | N=C(N)NCCC[C@@H](N)C(=O)N[C@H](CCCNC(=N)N)C(=O)N[C@H](CCCNC(=N)N)C(=O)N[C@H](CCCNC(=N)N)C(=O)N[C@H](CCCNC(=N)N)C(=O)N[C@H](CCCNC(=N)N)C(N)=O [Hexa-D-Arginine] | inactive: -0.908 | inactive: -0.645 | inactive: -0.766
14 | O=C1CCCC=C1C1COCCN1O (stereo not given) | inactive: -0.986 | inactive: -0.18 | inactive: 0.316
15 | CC(C)(C)C#Cc1cc(N(C(=O)[C@H]2CC[C@H](C)CC2)[C@H]2CC[C@@H](O)CC2)c(C(=O)O)s1 [lomibuvir (tablet)] | active: 7.66 | inactive: 2.33 | inactive: -0.962
16 | CNC(=O)c1ccc2c(c1)CCO[C@H]2CCN1CCN(c2ccc(C(N)=O)cc2)CC1 | inactive: 0.295 | inactive: 0.73 | inactive: 0.344
17 | C[C@@H]1O[C@@H](OC[C@H]2O[C@@H](Oc3c(-c4ccc(O)c(O)c4)oc4cc(O)cc(O)c4c3=O)[C@H](O)[C@@H](O)[C@@H]2O)[C@H](O)[C@H](O)[C@H]1O | inactive: -0.427 |  | inactive: 0.701

Row | SMILES | TEAD-luciferase reporter activity (compound concentration: 200 nM) | TEAD-luciferase reporter activity (compound concentration: 2 uM) | TEAD-luciferase reporter activity (compound concentration: 10 uM)
18 | C[C@@H]1O[C@@H](OC[C@H]2O[C@@H](Oc3c(-c4ccc(O)c(O)c4)oc4cc(O)cc(O)c4c3=O)[C@H](O)[C@@H](O)[C@@H]2O)[C@H](O)[C@H](O)[C@H]1O [Rutin] |  | inactive: 0.993 | 
19 | CCOc1cc(N)c([N+](=O)[O-])cc1C(=O)NC1CCN(CC2CC=CCC2)CC1 (stereo not given) [Cinitapride hydrogen tartrate] | inactive: -1.45 | inactive: 0.158 | inactive: 2.65
20 | CN(C)CCO/N=C(\C=C\c1ccc(O)cc1)c1ccccc1F [Eplivanserin] | inactive: -0.328 | inactive: -1.69 | inactive: 1.87
21 | O=C(O)[C@@H]1CCCN1 [proline] | inactive: -1.02 | inactive: -1.23 | inactive: 1.15
22 | CC(NC(=O)C1CSCN1C(=O)c1ccccc1)c1ccccc1 (stereo not given) | inactive: -0.53 | inactive: -1.42 | inactive: 1.5
23 | O=C1NCc2ccccc2CC12CCCCN2CC1CCOCC1 (stereo not given) | inactive: 0.262 |  | 
24 | CC(C)C(=O)OCC(=O)[C@@]12OC(C3CCCCC3)O[C@@H]1C[C@H]1[C@@H]3CCC4=CC(=O)C=C[C@]4(C)[C@H]3[C@@H](O)C[C@@]12C (stereo not given in full) [Ciclesonide] | inactive: 0.49 | inactive: 0.406 | inactive: -0.852
25 | Cc1cc(-c2ccccc2[C@@H](C)OC[C@H](O)CNC(C)(C)Cc2ccc(Cl)c(F)c2)ccc1C(=O)O [Encaleret sulfate] | inactive: 1.77 | inactive: -0.275 | inactive: -0.662
26 | CNC(=O)c1cc(Oc2ccc(NC(=O)Nc3cc(C(C)(C)C)nn3-c3ccc4ncccc4c3)c(F)c2)ccn1 [rebastinib] |  | inactive: -2.66 | 
27 | CNC(=O)c1cc(Oc2ccc(NC(=O)Nc3cc(C(C)(C)C)nn3-c3ccc4ncccc4c3)c(F)c2)ccn1 [DCC-2036 (Rebastinib)] | inactive: -0.0388 |  | inactive: -3.55
28 | CC1(C)CN(C(=O)c2ccc(-c3cccc4nc(NC(=O)C5CC5)nn34)cc2)C1 [Solcitinib] | inactive: 0.132 | inactive: -1.76 | inactive: 1.91
29 | CCc1nc2cc(N3CCSCC3)nc(CC)n2n1 | inactive: -0.643 | inactive: -0.0572 | inactive: -0.887
30 | Nc1ccc(S(=O)(=O)Nc2ccnn2-c2ccccc2)cc1 | inactive: -0.332 |  | active: 5.11
31 | Nc1ccc(S(=O)(=O)Nc2ccnn2-c2ccccc2)cc1 [Sulfaphenazole] |  | inactive: -1.86 | 
32 | CN1CCCCC1CCc1ccccc1NC(=O)/C=C/c1ccccc1 (stereo not given) | inactive: 0.0513 | inactive: 0.591 | inactive: -1.04
33 | CC[C@H]1NC(=O)c2cccc(c2)CNC(=O)[C@H](CC(=O)O)NC(=O)CNC(=O)[C@H](CCCNC(=N)N)N(C)C1=O | inactive: 0.544 | inactive: -1.21 | inactive: 1.4
34 | O=C(c1ccc(F)cc1)c1ccccc1F [2,4'-Difluorobenzophe] | inactive: -1.27 | inactive: 0.0884 | inactive: -0.27

Exported as a markdown table: entries from further up

| Row | SMILES | TEAD-luciferase reporter activity (compound concentration: 200 nM) | TEAD-luciferase reporter activity (compound concentration: 2 uM) | TEAD-luciferase reporter activity (compound concentration: 10 uM) |
| --- | --- | --- | --- | --- |
| 24 | CC(C)C(=O)OCC(=O)[C@@]12OC(C3CCCCC3)O[C@@H]1C[C@H]1[C@@H]3CCC4=CC(=O)C=C[C@]4(C)[C@H]3[C@@H](O)C[C@@]12C (stereo not given in full) [Ciclesonide] | inactive: 0.49 | inactive: 0.406 | inactive: -0.852 |
| 25 | Cc1cc(-c2ccccc2[C@@H](C)OC[C@H](O)CNC(C)(C)Cc2ccc(Cl)c(F)c2)ccc1C(=O)O [Encaleret sulfate] | inactive: 1.77 | inactive: -0.275 | inactive: -0.662 |
| 26 | CNC(=O)c1cc(Oc2ccc(NC(=O)Nc3cc(C(C)(C)C)nn3-c3ccc4ncccc4c3)c(F)c2)ccn1 [rebastinib] |  | inactive: -2.66 |  |
| 27 | CNC(=O)c1cc(Oc2ccc(NC(=O)Nc3cc(C(C)(C)C)nn3-c3ccc4ncccc4c3)c(F)c2)ccn1 [DCC-2036 (Rebastinib)] | inactive: -0.0388 |  | inactive: -3.55 |
| 28 | CC1(C)CN(C(=O)c2ccc(-c3cccc4nc(NC(=O)C5CC5)nn34)cc2)C1 [Solcitinib] | inactive: 0.132 | inactive: -1.76 | inactive: 1.91 |
| 29 | CCc1nc2cc(N3CCSCC3)nc(CC)n2n1 | inactive: -0.643 | inactive: -0.0572 | inactive: -0.887 |
| 30 | Nc1ccc(S(=O)(=O)Nc2ccnn2-c2ccccc2)cc1 | inactive: -0.332 |  | active: 5.11 |
| 31 | Nc1ccc(S(=O)(=O)Nc2ccnn2-c2ccccc2)cc1 [Sulfaphenazole] |  | inactive: -1.86 |  |

Reference: the supplement of paper PMC10735217
